# Reference: PMC6553528, “An Interaction Network of the Human SEPT9 Established by Quantitative Mass Spectrometry” (G3: Genes|Genomes|Genetics, 2019)
# Results are given in words; binding and its absence hold for the method and conditions named. Binding seen in cells or lysates may run through a third protein. These calls come from enrichment with a bait or labelling near it, and not all partners need be listed.
# T1: TAP-SEPT9_i1 (human) (UniProt Q9UHD8)
# T1 sequence: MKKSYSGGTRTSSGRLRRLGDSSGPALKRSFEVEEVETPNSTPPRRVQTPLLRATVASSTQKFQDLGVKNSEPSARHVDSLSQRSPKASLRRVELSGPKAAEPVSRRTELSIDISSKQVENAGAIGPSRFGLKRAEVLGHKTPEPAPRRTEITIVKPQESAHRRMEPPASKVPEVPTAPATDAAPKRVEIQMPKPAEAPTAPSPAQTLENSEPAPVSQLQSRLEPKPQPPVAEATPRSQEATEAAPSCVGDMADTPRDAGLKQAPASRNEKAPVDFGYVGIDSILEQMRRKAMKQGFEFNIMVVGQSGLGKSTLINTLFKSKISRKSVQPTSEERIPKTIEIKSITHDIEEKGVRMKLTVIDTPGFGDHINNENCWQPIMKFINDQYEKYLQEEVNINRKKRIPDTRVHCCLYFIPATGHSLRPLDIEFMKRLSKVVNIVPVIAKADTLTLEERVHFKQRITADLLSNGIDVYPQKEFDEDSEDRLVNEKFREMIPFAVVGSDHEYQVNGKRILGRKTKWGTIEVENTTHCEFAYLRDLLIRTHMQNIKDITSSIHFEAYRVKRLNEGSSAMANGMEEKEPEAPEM
# B1: Protein LYRIC (protein, UniProt Q86UE4 1-582)
# chain: MAARSWQDELAQQAEEGSARLREMLSVGLGFLRTELGLDLGLEPKRYPGWVILVGTGALGLLLLFLLGYGWAAACAGARKKRRSPPRKREEAAAVPAAAPDDLALLKNLRSEEQKKKNRKKLSEKPKPNGRTVEVAEGEAVRTPQSVTAKQPPEIDKKNEKSKKNKKKSKSDAKAVQNSSRHDGKEVDEGAWETKISHREKRQQRKRDKVLTDSGSLDSTIPGIENTITVTTEQLTTASFPVGSKKNKGDSHLNVQVSNFKSGKGDSTLQVSSGLNENLTVNGGGWNEKSVKLSSQISAGEEKWNSVSPASAGKRKTEPSAWSQDTGDANTNGKDWGRSWSDRSIFSGIGSTAEPVSQSTTSDYQWDVSRNQPYIDDEWSGLNGLSSADPNSDWNAPAEEWGNWVDEERASLLKSQEPIPDDQKVSDDDKEKGEGALPTGKSKKKKKKKKKQGEDNSTAQDTEELEKEIREDLPVNTSKTRPKQEKAFSLKTISTSDPAEVLVKNSQPIKTLPPATSTEPSVILSKSDSDKSSSQVPPILQETDKSKSNTKQNSVPPSQTKSETSWESPKQIKKKKKARRET
# B2: Septin-11 (protein, UniProt Q9NVA2 1-429)
# chain: MAVAVGRPSNEELRNLSLSGHVGFDSLPDQLVNKSTSQGFCFNILCVGETGIGKSTLMDTLFNTKFESDPATHNEPGVRLKARSYELQESNVRLKLTIVDTVGFGDQINKDDSYKPIVEYIDAQFEAYLQEELKIKRSLFNYHDTRIHACLYFIAPTGHSLKSLDLVTMKKLDSKVNIIPIIAKADTIAKNELHKFKSKIMSELVSNGVQIYQFPTDEETVAEINATMSVHLPFAVVGSTEEVKIGNKMAKARQYPWGVVQVENENHCDFVKLREMLIRVNMEDLREQTHTRHYELYRRCKLEEMGFKDTDPDSKPFSLQETYEAKRNEFLGELQKKEEEMRQMFVMRVKEKEAELKEAEKELHEKFDLLKRTHQEEKKKVEDKKKELEEEVNNFQKKKAAAQLLQSQAQQSGAQQTKKDKDKKNASFT
# B3: Aspartate aminotransferase, mitochondrial (protein, UniProt P00505 30-430)
# chain: SSWWTHVEMGPPDPILGVTEAFKRDTNSKKMNLGVGAYRDDNGKPYVLPSVRKAEAQIAAKNLDKEYLPIGGLAEFCKASAELALGENSEVLKSGRFVTVQTISGTGALRIGASFLQRFFKFSRDVFLPKPTWGNHTPIFRDAGMQLQGYRYYDPKTCGFDFTGAVEDISKIPEQSVLLLHACAHNPTGVDPRPEQWKEIATVVKKRNLFAFFDMAYQGFASGDGDKDAWAVRHFIEQGINVCLCQSYAKNMGLYGERVGAFTMVCKDADEAKRVESQLKILIRPMYSNPPLNGARIAAAILNTPDLRKQWLQEVKVMADRIIGMRTQLVSNLKKEGSTHNWQHITDQIGMFCFTGLKPEQVERLIKEFSIYMTKDGRISVAGVTSSNVGYLAHAIHQVTK
# Target: T1, TAP-SEPT9_i1 (human)
# Experiment: affinity purification with mass spectrometry; TAP-SEPT9 captured on human IgG-Sepharose from the cytoplasmic lysate of SILAC-labelled 1306 fibroblasts (overnight, 4 degrees); mixing after purification with the eluate of unlabelled GFP-SEPT9 cells as control; three replicates; hits by LOG2(H/L)>2 and Significance B
row,binding,Binder
1,binds,B1
2,binds,B2
3,binds,B3
